Results on 5 substances are retold here after article doi:10.1101/2023.06.05.543739.

Chains of the proteins cited; added tags and fusions are not shown. Lines headed by an entry give the natural chain unless they say otherwise; changes in a name come on top. Residues count along the entry.
UniProt O35973, whole entry: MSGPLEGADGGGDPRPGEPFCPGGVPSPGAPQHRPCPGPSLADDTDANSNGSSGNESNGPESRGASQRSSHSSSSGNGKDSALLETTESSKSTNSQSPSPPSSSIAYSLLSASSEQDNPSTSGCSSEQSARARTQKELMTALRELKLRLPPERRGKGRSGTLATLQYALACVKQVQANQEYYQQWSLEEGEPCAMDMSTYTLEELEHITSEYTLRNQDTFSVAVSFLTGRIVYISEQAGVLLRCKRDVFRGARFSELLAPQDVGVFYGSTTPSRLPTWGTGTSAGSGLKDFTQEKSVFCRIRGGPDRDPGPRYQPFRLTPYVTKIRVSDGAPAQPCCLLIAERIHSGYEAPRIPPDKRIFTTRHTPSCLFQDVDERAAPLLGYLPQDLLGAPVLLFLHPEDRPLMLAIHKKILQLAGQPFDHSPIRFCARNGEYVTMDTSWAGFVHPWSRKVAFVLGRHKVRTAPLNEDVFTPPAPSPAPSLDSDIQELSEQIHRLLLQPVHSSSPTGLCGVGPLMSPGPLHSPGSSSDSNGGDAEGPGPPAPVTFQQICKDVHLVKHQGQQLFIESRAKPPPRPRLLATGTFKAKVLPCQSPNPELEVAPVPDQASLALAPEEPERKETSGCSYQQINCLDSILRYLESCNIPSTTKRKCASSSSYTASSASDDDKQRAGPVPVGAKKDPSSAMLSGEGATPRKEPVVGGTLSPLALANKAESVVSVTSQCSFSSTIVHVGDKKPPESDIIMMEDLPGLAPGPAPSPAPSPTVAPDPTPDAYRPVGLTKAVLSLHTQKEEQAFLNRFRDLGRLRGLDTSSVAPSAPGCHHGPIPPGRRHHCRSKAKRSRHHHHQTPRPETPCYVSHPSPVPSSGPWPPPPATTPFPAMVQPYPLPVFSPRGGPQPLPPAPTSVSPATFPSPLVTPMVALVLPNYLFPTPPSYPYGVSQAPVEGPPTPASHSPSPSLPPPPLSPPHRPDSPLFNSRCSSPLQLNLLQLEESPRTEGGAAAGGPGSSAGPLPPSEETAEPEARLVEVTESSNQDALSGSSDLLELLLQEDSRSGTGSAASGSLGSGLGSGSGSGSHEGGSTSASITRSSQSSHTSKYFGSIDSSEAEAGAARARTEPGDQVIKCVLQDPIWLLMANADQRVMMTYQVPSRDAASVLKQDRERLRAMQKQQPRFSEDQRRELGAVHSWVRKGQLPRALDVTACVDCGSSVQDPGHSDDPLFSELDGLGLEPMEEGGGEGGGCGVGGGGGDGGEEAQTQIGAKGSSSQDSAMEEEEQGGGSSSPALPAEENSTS
UniProt O35973, 1013-1291: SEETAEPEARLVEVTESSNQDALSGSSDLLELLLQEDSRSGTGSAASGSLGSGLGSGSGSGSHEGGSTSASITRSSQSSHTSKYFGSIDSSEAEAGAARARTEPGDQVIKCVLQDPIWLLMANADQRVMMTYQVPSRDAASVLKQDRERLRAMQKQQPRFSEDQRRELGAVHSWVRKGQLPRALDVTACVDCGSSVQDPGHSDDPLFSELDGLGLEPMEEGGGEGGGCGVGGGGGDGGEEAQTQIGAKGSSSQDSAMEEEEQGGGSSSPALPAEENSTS

The target of one assay is T1, V5-tagged CRY1 (UniProt P97784).
T1 sequence: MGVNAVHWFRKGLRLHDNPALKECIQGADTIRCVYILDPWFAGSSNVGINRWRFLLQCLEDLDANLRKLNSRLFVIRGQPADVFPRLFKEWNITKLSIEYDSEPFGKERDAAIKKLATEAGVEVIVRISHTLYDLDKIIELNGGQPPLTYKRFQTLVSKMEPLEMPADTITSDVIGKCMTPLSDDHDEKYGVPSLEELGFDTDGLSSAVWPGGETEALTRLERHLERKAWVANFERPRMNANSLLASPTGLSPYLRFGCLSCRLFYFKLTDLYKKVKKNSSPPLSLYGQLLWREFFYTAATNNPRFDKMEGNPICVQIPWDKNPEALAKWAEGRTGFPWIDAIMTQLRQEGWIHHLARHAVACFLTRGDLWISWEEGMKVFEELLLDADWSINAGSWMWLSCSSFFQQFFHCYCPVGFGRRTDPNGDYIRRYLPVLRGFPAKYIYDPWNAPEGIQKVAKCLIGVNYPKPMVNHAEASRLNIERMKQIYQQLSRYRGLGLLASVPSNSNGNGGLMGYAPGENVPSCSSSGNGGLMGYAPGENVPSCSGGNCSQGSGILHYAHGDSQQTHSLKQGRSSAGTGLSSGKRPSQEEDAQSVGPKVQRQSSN
Description: co-IP.

For another assay, the target named is T2, CRY2-PHR (1-512) (UniProt Q9R194).
T2 sequence: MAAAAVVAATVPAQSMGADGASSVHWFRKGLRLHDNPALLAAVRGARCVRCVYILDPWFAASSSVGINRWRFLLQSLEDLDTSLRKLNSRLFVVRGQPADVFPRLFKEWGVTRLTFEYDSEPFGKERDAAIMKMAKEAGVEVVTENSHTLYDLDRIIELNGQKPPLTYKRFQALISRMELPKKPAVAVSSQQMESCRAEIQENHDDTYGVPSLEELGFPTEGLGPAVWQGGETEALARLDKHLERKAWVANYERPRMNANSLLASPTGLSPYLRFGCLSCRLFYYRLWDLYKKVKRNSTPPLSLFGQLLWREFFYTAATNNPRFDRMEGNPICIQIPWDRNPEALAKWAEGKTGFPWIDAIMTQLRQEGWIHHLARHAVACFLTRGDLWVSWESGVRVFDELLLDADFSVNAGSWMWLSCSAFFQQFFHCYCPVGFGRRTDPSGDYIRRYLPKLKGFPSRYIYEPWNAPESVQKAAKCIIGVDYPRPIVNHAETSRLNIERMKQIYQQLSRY
Description: SEC.

These are yes or no findings as the source states them, for the method shown. For some assays here: Binding seen in cells or lysates may run through a third protein. Some entries that bind do so weakly or less than the wild type. For some assays here: Sequences can lack the tags named with a protein.

Turning to “Flag-tagged full-length PER1 (from UniProt O35973 1-1291)”, in the assay with V5-tagged CRY1, the binding result was “binds”.
Regarding “Flag-tagged full-length PER1 D1197A (from UniProt O35973 1-1291)”, the binding entry with V5-tagged CRY1 is “binds”.
“Flag-tagged full-length PER1 R1111A D1197A (from UniProt O35973 1-1291)”: in the assay with V5-tagged CRY1, the binding result is “binds”.
For the substance “Flag-tagged full-length PER1 R1111A R1113A (from UniProt O35973 1-1291)”, in the assay with V5-tagged CRY1, the binding result is “binds”.
Turning to “PER1 1013-1291 (from UniProt O35973 1013-1291) (domain or fragment)”, the binding result in the assay with CRY2-PHR (1-512) is “binds”.
